# These are yes or no findings as the source states them, for the method shown. Some binding calls cover weakened binding; strength is not graded here.
# Legend:
# Test in all cases: native gel or EMSA; BN-PAGE of purified AcrB proteins; loading buffer with 1% dodecylmaltoside, 0.1% Coomassie G-250, pH 7.0; 4-15% gradient gel, 15 mA, 4°C, 2 h; trimer and monomer bands quantified with ImageJ; trimer to monomers; both purified
# AcrB_(P223G) (E. coli) = AcrB_(P223G) (E. coli) (UniProt P31224)
# [1] = biological target: AcrB_(P223G/A209V) (E. coli) (UniProt P31224)
# [2] = biological target: AcrB_(P223G/D256N) (E. coli) (UniProt P31224)
# [3] = biological target: AcrB_(P223G/D788K) (E. coli) (UniProt P31224)
# [4] = biological target: AcrB_(P223G/E810K) (E. coli) (UniProt P31224)
# [5] = biological target: AcrB_(P223G/G257V) (E. coli) (UniProt P31224)
# [6] = biological target: AcrB_(P223G/M662I) (E. coli) (UniProt P31224)
# [7] = biological target: AcrB_(P223G/P800S) (E. coli) (UniProt P31224)
# [8] = biological target: AcrB_(P223G/Q737L) (E. coli) (UniProt P31224)
# [9] = biological target: AcrB_(P223G/T199M) (E. coli) (UniProt P31224)
substance,measurement,setting,value
AcrB_(P223G) (from UniProt P31224 1-1049),binding,AcrB_(P223G) (E. coli),binds weakly
AcrB_(P223G/A209V) (from UniProt P31224 1-1049),binding,[1],binds weakly
AcrB_(P223G/D256N) (from UniProt P31224 1-1049),binding,[2],binds weakly
AcrB_(P223G/D788K) (from UniProt P31224 1-1049),binding,[3],binds weakly
AcrB_(P223G/E810K) (from UniProt P31224 1-1049),binding,[4],binds weakly
AcrB_(P223G/G257V) (from UniProt P31224 1-1049),binding,[5],binds weakly
AcrB_(P223G/M662I) (from UniProt P31224 1-1049),binding,[6],binds weakly
AcrB_(P223G/P800S) (from UniProt P31224 1-1049),binding,[7],binds weakly
AcrB_(P223G/Q737L) (from UniProt P31224 1-1049),binding,[8],binds weakly
AcrB_(P223G/T199M) (from UniProt P31224 1-1049),binding,[9],binds weakly

# From paper PMC4303003
